{"sequences": {"note": "Amino acid sequences for entries named in this document (tags omitted). A change or cut given only in a name is not applied to a line headed by its entry.", "UniProt P60568": "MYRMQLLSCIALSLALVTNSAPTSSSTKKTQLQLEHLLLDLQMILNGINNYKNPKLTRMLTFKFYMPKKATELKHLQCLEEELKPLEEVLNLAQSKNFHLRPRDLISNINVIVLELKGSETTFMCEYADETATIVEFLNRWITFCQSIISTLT"}, "source": "patent US20240010697A1", "key": {"IL-2Rαβγ on CTLL2 cells [1]": {"biological_target": "T1, IL-2Rαβγ on CTLL2 cells (UniProt P01590)", "T1 sequence (looked up) 1": "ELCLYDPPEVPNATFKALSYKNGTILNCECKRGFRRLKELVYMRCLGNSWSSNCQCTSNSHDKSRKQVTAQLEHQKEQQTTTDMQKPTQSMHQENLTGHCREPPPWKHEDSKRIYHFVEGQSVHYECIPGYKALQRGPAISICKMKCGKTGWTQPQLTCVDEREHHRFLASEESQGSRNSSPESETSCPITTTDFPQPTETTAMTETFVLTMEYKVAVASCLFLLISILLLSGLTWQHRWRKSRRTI", "T1 sequence (looked up) 2": "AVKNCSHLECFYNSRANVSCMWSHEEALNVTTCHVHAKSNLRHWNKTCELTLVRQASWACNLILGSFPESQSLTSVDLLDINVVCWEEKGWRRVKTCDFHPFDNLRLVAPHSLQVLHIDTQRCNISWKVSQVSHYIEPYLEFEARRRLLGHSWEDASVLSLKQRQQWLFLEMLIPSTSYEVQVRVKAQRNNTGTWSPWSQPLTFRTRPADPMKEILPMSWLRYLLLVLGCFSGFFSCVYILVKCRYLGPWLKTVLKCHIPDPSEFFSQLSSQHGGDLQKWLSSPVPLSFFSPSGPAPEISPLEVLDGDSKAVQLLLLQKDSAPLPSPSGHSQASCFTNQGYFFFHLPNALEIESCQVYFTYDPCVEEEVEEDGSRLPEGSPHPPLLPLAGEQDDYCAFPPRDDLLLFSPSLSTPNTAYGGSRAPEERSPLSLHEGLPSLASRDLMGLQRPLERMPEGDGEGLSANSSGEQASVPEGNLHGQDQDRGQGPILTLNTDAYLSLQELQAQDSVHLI", "T1 sequence (looked up) 3": "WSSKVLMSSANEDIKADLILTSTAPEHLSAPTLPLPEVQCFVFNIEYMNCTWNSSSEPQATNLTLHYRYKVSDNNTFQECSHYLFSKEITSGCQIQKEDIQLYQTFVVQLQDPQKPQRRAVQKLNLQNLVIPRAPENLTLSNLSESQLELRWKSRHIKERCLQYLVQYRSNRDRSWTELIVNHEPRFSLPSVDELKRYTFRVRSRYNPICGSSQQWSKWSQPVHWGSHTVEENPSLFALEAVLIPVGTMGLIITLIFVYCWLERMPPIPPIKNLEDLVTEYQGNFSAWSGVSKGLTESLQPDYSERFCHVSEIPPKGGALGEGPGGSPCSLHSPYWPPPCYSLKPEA", "assay": "flow cytometry on cells, anti-His-APC"}, "IL-2Rαβγ on CTLL2 cells [2]": {"biological_target": "T1, IL-2Rαβγ on CTLL2 cells", "assay": "flow cytometry on CTLL-2 cells, His-tagged protein at 1.0 and 0.1 ug/ml, anti-His-APC; y axis without label"}}, "note": "Results are given in words; binding and its absence hold for the method and conditions named. Some binding calls cover weakened binding; strength is not graded here.", "data": [{"substance": "ACT5201, IL-2 mutein Y31C (PEG20K) (from UniProt P60568 21-153) (ligand)", "values": [{"measurement": "binding", "setting": "IL-2Rαβγ on CTLL2 cells [1]", "value": "binds"}]}, {"substance": "ACT5200, IL-2 mutein Y31C (from UniProt P60568 21-153) (ligand)", "values": [{"measurement": "binding", "setting": "IL-2Rαβγ on CTLL2 cells [1]", "value": "binds"}, {"measurement": "binding", "setting": "IL-2Rαβγ on CTLL2 cells [2]", "value": "binds"}]}, {"substance": "recombinant human IL-2 with C125S substitution (rhIL-2) (from UniProt P60568 21-153) (ligand)", "values": [{"measurement": "binding", "setting": "IL-2Rαβγ on CTLL2 cells [2]", "value": "binds"}]}, {"substance": "ACT5211, IL-2 mutein Y31C + L18M + L19S (PEG20K) (from UniProt P60568 21-153) (ligand)", "values": [{"measurement": "binding", "setting": "IL-2Rαβγ on CTLL2 cells [2]", "value": "binds"}]}]}
